# Laboratory results reported in the supplement of paper PMC8728848.
# The list shows a part of the results.
# Tests used:
# Experiment in all cases: glycan array binding signal (z-score within array); higher = stronger binding
# Conditions in all cases: glycan notation: IUPAC condensed, linker removed
# [1] = target: GlcNAc(b1-2)[GlcNAc(b1-4)]Man(a1-3)[GlcNAc(b1-4)][GlcNAc(b1-2)Man(a1-6)]Man(b1-4)GlcNAc(b1-4)GlcNAc
# How it was run: (§1)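 Columns mapping to the same glycan were averaged after glycan names were converted to IUPAC-condensed notation. The data come from 3228 arrays in the Consortium for Functional Glycomics database, limited to those with an available protein sequence. Binding is reported as a within-array Z-score averaged across arrays of one protein sequence and across linkers.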
# [2] = target: GlcNAc(b1-2)[GlcNAc(b1-4)]Man(a1-3)[GlcNAc(b1-4)][GlcNAc(b1-2)[GlcNAc(b1-6)]Man(a1-6)]Man(b1-4)GlcNAc(b1-4)GlcNAc
# How it was run: as §1
# [3] = target: GlcNAc(b1-2)[GlcNAc(b1-4)]Man(a1-3)[GlcNAc(b1-4)][GlcNAc(b1-2)[GlcNAc(b1-6)]Man(a1-6)]Man(b1-4)GlcNAc(b1-4)[Fuc(a1-6)]GlcNAc
# How it was run: as §1
# [4] = target: GlcNAc(b1-2)[GlcNAc(b1-6)]Man(a1-6)[GlcNAc(b1-2)Man(a1-3)]Man(b1-4)GlcNAc(b1-4)GlcNAc
# How it was run: as §1
# [5] = target: GlcNAc(b1-2)[GlcNAc(b1-6)]Man(a1-6)[GlcNAc(b1-2)Man(a1-3)]Man(b1-4)GlcNAc(b1-4)[Fuc(a1-6)]GlcNAc
# How it was run: as §1
# [6] = target: GlcNAc(b1-2)[GlcNAc(b1-6)]Man(a1-6)[GlcNAc(b1-4)][GlcNAc(b1-2)Man(a1-3)]Man(b1-4)GlcNAc(b1-4)GlcNAc
# How it was run: as §1
# GlcNAc(b1-3)Fuc = target: GlcNAc(b1-3)Fuc
# How it was run: as §1
# GlcNAc(b1-3)Gal = target: GlcNAc(b1-3)Gal
# How it was run: as §1
# [7] = target: GlcNAc(b1-3)Gal(b1-3)GalNAc
# How it was run: as §1
# GlcNAc(b1-3)Gal(b1-4)Glc = target: GlcNAc(b1-3)Gal(b1-4)Glc
# How it was run: as §1
# [8] = target: GlcNAc(b1-3)Gal(b1-4)GlcNAc
# How it was run: as §1
# [9] = target: GlcNAc(b1-3)Gal(b1-4)GlcNAc(b1-2)Man(a1-3)[GlcNAc(b1-3)Gal(b1-4)GlcNAc(b1-2)Man(a1-6)]Man(b1-4)GlcNAc(b1-4)GlcNAc
# How it was run: as §1
# [10] = target: GlcNAc(b1-3)Gal(b1-4)GlcNAc(b1-2)Man(a1-3)[GlcNAc(b1-3)Gal(b1-4)GlcNAc(b1-2)Man(a1-6)]Man(b1-4)GlcNAc(b1-4)[Fuc(a1-6)]GlcNAc
# How it was run: as §1
# [11] = target: GlcNAc(b1-3)Gal(b1-4)GlcNAc(b1-2)[GlcNAc(b1-3)Gal(b1-4)GlcNAc(b1-6)]Man(a1-6)[GlcNAc(b1-3)Gal(b1-4)GlcNAc(b1-2)Man(a1-3)]Man(b1-4)GlcNAc(b1-4)GlcNAc
# How it was run: as §1
# [12] = target: GlcNAc(b1-3)Gal(b1-4)GlcNAc(b1-3)Gal(b1-4)GlcNAc
# How it was run: as §1
# [13] = target: GlcNAc(b1-3)Gal(b1-4)GlcNAc(b1-3)Gal(b1-4)GlcNAc(b1-2)Man(a1-3)[GlcNAc(b1-3)Gal(b1-4)GlcNAc(b1-3)Gal(b1-4)GlcNAc(b1-2)Man(a1-6)]Man(b1-4)GlcNAc(b1-4)GlcNAc
# How it was run: as §1
# [14] = target: GlcNAc(b1-3)Gal(b1-4)GlcNAc(b1-3)Gal(b1-4)GlcNAc(b1-2)Man(a1-3)[GlcNAc(b1-3)Gal(b1-4)GlcNAc(b1-3)Gal(b1-4)GlcNAc(b1-2)Man(a1-6)]Man(b1-4)GlcNAc(b1-4)[Fuc(a1-6)]GlcNAc
# How it was run: as §1
# [15] = target: GlcNAc(b1-3)Gal(b1-4)GlcNAc(b1-3)Gal(b1-4)GlcNAc(b1-2)[GlcNAc(b1-3)Gal(b1-4)GlcNAc(b1-3)Gal(b1-4)GlcNAc(b1-6)]Man(a1-6)[GlcNAc(b1-3)Gal(b1-4)GlcNAc(b1-3)Gal(b1-4)GlcNAc(b1-2)Man(a1-3)]Man(b1-4)GlcNAc(b1-4)[Fuc(a1-6)]GlcNAc
# How it was run: as §1
# [16] = target: GlcNAc(b1-3)Gal(b1-4)GlcNAc(b1-3)Gal(b1-4)GlcNAc(b1-3)Gal(b1-4)GlcNAc(b1-2)Man(a1-3)[GlcNAc(b1-3)Gal(b1-4)GlcNAc(b1-3)Gal(b1-4)GlcNAc(b1-3)Gal(b1-4)GlcNAc(b1-2)Man(a1-6)]Man(b1-4)GlcNAc(b1-4)GlcNAc
# How it was run: as §1
# [17] = target: GlcNAc(b1-3)Gal(b1-4)GlcNAc(b1-3)Gal(b1-4)GlcNAc(b1-3)Gal(b1-4)GlcNAc(b1-2)Man(a1-3)[GlcNAc(b1-3)Gal(b1-4)GlcNAc(b1-3)Gal(b1-4)GlcNAc(b1-3)Gal(b1-4)GlcNAc(b1-2)Man(a1-6)]Man(b1-4)GlcNAc(b1-4)[Fuc(a1-6)]GlcNAc
# How it was run: as §1
# [18] = target: GlcNAc(b1-3)Gal(b1-4)GlcNAc(b1-3)Gal(b1-4)GlcNAc(b1-3)Gal(b1-4)GlcNAc(b1-2)[GlcNAc(b1-3)Gal(b1-4)GlcNAc(b1-3)Gal(b1-4)GlcNAc(b1-3)Gal(b1-4)GlcNAc(b1-6)]Man(a1-6)[GlcNAc(b1-3)Gal(b1-4)GlcNAc(b1-3)Gal(b1-4)GlcNAc(b1-3)Gal(b1-4)GlcNAc(b1-2)Man(a1-3)]Man(b1-4)GlcNAc(b1-4)[Fuc(a1-6)]GlcNAc
# How it was run: as §1
# [19] = target: GlcNAc(b1-3)Gal(b1-4)GlcNAc(b1-3)Gal(b1-4)GlcNAc(b1-3)Gal(b1-4)GlcNAc(b1-3)Gal(b1-4)GlcNAc(b1-2)Man(a1-3)[GlcNAc(b1-3)Gal(b1-4)GlcNAc(b1-3)Gal(b1-4)GlcNAc(b1-3)Gal(b1-4)GlcNAc(b1-3)Gal(b1-4)GlcNAc(b1-2)Man(a1-6)]Man(b1-4)GlcNAc(b1-4)GlcNAc
# How it was run: as §1
# [20] = target: GlcNAc(b1-3)Gal(b1-4)GlcNAc(b1-3)Gal(b1-4)GlcNAc(b1-3)Gal(b1-4)GlcNAc(b1-3)Gal(b1-4)GlcNAc(b1-2)Man(a1-3)[GlcNAc(b1-3)Gal(b1-4)GlcNAc(b1-3)Gal(b1-4)GlcNAc(b1-3)Gal(b1-4)GlcNAc(b1-3)Gal(b1-4)GlcNAc(b1-2)Man(a1-6)]Man(b1-4)GlcNAc(b1-4)[Fuc(a1-6)]GlcNAc
# How it was run: as §1
# [21] = target: GlcNAc(b1-3)Gal(b1-4)GlcNAc(b1-3)Gal(b1-4)GlcNAc(b1-3)Gal(b1-4)GlcNAc(b1-3)Gal(b1-4)GlcNAc(b1-2)[GlcNAc(b1-3)Gal(b1-4)GlcNAc(b1-3)Gal(b1-4)GlcNAc(b1-3)Gal(b1-4)GlcNAc(b1-3)Gal(b1-4)GlcNAc(b1-6)]Man(a1-6)[GlcNAc(b1-3)Gal(b1-4)GlcNAc(b1-3)Gal(b1-4)GlcNAc(b1-3)Gal(b1-4)GlcNAc(b1-3)Gal(b1-4)GlcNAc(b1-2)Man(a1-3)]Man(b1-4)GlcNAc(b1-4)[Fuc(a1-6)]GlcNAc
# How it was run: as §1
# [22] = target: GlcNAc(b1-3)Gal(b1-4)GlcNAc(b1-3)Gal(b1-4)GlcNAc(b1-3)GalNAc
# How it was run: as §1
# [23] = target: GlcNAc(b1-3)Gal(b1-4)GlcNAc(b1-3)GalNAc
# How it was run: as §1
# [24] = target: GlcNAc(b1-3)Gal(b1-4)GlcNAc(b1-3)[GlcNAc(b1-3)Gal(b1-4)GlcNAc(b1-3)]GalNAc
# How it was run: as §1
# [25] = target: GlcNAc(b1-3)Gal(b1-4)GlcNAc(b1-6)[Gal(b1-3)]GalNAc
# How it was run: as §1
# [26] = target: GlcNAc(b1-3)Gal(b1-4)GlcNAc(b1-6)[GlcNAc(b1-3)Gal(b1-3)]GalNAc
# How it was run: as §1
# [27] = target: GlcNAc(b1-3)Gal(b1-4)GlcNAc(b1-6)[GlcNAc(b1-3)]Gal(b1-4)GlcNAc
# How it was run: as §1
# GlcNAc(b1-3)GalNAc = target: GlcNAc(b1-3)GalNAc
# How it was run: as §1
# GlcNAc(b1-3)Man = target: GlcNAc(b1-3)Man
# How it was run: as §1
# [28] = target: GlcNAc(b1-3)[GlcNAc(b1-4)][GlcNAc(b1-6)]GlcNAc
# How it was run: as §1
# [29] = target: GlcNAc(b1-3)[GlcNAc(b1-6)]Gal(b1-4)GlcNAc
# How it was run: as §1
# [30] = target: GlcNAc(b1-3)[GlcNAc(b1-6)]GalNAc
# How it was run: as §1
# [31] = target: GlcNAc(b1-4)Gal(b1-4)GlcNAc
# How it was run: as §1
# GlcNAc(b1-4)GlcNAc = target: GlcNAc(b1-4)GlcNAc
# How it was run: as §1
# [32] = target: GlcNAc(b1-4)GlcNAc(b1-4)GlcNAc
# How it was run: as §1
binder,measurement,setting,value
"DC-Sign-R (Homo sapiens), Q9H2X3 (protein) MSDSKEPRVQQLGLLEEDPTTSGIRLFPRDFQFQQIHGHKSSTGCLGHGALVLQLLSFMLLAGVLVAILVQVSKVPSSLSQEQSEQDAIYQNLTQLKAAVGELSEKSKLQEIYQELTQLKAAVGELPEKSKLQEIYQELTRLKAAVGELPEKSKLQEIYQELTRLKAAVGELPEKSKLQEIYQELTRLKAAVGELPEKSKLQEIYQELTELKAAVGELPEKSKLQEIYQELTQLKAAVGELPDQSKQQQIYQELTDLKTAFERLCRHCPKDWTFFQGNCYFMSNSQRNWHDSVTACQEVRAQLVVIKTAEEQNFLQLQTSRSNRFSWMGLSDLNQEGTWQWVDGSPLSPSFQRYWNSGEPNNSGNEDCAEFSGSGWNDNRCDVDNYWICKKPAACFRDE",glycan array binding signal (z-score),[1],2.91
same,glycan array binding signal (z-score),[2],0.048
same,glycan array binding signal (z-score),[3],1.65
same,glycan array binding signal (z-score),[4],0.046
same,glycan array binding signal (z-score),[5],-0.501
same,glycan array binding signal (z-score),[6],0.972
same,glycan array binding signal (z-score),GlcNAc(b1-3)Fuc,1.96
same,glycan array binding signal (z-score),GlcNAc(b1-3)Gal,-0.169
same,glycan array binding signal (z-score),[7],0.907
same,glycan array binding signal (z-score),GlcNAc(b1-3)Gal(b1-4)Glc,-0.451
same,glycan array binding signal (z-score),[8],0.161
same,glycan array binding signal (z-score),[9],-0.072
same,glycan array binding signal (z-score),[10],0.094
same,glycan array binding signal (z-score),[11],2.48
same,glycan array binding signal (z-score),[12],0.703
same,glycan array binding signal (z-score),[13],0.429
same,glycan array binding signal (z-score),[14],-0.152
same,glycan array binding signal (z-score),[15],-0.433
same,glycan array binding signal (z-score),[16],-0.691
same,glycan array binding signal (z-score),[17],-0.393
same,glycan array binding signal (z-score),[18],-0.532
same,glycan array binding signal (z-score),[19],-0.559
same,glycan array binding signal (z-score),[20],-0.657
same,glycan array binding signal (z-score),[21],-0.686
same,glycan array binding signal (z-score),[22],-0.424
same,glycan array binding signal (z-score),[23],0.93
same,glycan array binding signal (z-score),[24],0.24
same,glycan array binding signal (z-score),[25],1.82
same,glycan array binding signal (z-score),[26],1.74
same,glycan array binding signal (z-score),[27],0.145
same,glycan array binding signal (z-score),GlcNAc(b1-3)GalNAc,-0.469
same,glycan array binding signal (z-score),GlcNAc(b1-3)Man,-0.846
same,glycan array binding signal (z-score),[28],0.319
same,glycan array binding signal (z-score),[29],-0.369
same,glycan array binding signal (z-score),[30],0.275
same,glycan array binding signal (z-score),[31],0.1
same,glycan array binding signal (z-score),GlcNAc(b1-4)GlcNAc,0.486
same,glycan array binding signal (z-score),[32],-0.421

# Quoted at random: 2 records from the list
binder,measurement,setting,value
"DC-Sign-R (Homo sapiens), Q9H2X3 (protein) MSDSKEPRVQQLGLLEEDPTTSGIRLFPRDFQFQQIHGHKSSTGCLGHGALVLQLLSFMLLAGVLVAILVQVSKVPSSLSQEQSEQDAIYQNLTQLKAAVGELSEKSKLQEIYQELTQLKAAVGELPEKSKLQEIYQELTRLKAAVGELPEKSKLQEIYQELTRLKAAVGELPEKSKLQEIYQELTRLKAAVGELPEKSKLQEIYQELTELKAAVGELPEKSKLQEIYQELTQLKAAVGELPDQSKQQQIYQELTDLKTAFERLCRHCPKDWTFFQGNCYFMSNSQRNWHDSVTACQEVRAQLVVIKTAEEQNFLQLQTSRSNRFSWMGLSDLNQEGTWQWVDGSPLSPSFQRYWNSGEPNNSGNEDCAEFSGSGWNDNRCDVDNYWICKKPAACFRDE",glycan array binding signal (z-score),[30],0.275
same,glycan array binding signal (z-score),[31],0.1
